Test results published in paper PMC9839712.

By UniProt entry, the sequences of proteins in these tests, tags left out. Where a name states a change or a piece, a line headed by the entry shows the natural chain unless it says otherwise.
UniProt Q8BNJ6: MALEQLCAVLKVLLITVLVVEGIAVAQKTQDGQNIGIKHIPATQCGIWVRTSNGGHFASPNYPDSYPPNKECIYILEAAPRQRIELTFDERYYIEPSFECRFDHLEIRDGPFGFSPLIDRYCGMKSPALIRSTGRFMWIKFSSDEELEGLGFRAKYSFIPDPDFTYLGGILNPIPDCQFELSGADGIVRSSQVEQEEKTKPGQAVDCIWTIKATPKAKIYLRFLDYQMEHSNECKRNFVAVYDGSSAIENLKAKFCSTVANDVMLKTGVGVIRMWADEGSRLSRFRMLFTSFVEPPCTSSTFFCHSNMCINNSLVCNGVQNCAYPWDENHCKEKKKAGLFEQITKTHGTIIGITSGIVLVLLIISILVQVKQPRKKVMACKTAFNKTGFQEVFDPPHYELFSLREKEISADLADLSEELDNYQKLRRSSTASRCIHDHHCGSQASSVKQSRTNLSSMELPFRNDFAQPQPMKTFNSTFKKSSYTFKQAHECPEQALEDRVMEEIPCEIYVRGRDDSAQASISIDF

Target: T1, FLAG-LRIG3 (UniProt Q6UXM1)
T1 sequence: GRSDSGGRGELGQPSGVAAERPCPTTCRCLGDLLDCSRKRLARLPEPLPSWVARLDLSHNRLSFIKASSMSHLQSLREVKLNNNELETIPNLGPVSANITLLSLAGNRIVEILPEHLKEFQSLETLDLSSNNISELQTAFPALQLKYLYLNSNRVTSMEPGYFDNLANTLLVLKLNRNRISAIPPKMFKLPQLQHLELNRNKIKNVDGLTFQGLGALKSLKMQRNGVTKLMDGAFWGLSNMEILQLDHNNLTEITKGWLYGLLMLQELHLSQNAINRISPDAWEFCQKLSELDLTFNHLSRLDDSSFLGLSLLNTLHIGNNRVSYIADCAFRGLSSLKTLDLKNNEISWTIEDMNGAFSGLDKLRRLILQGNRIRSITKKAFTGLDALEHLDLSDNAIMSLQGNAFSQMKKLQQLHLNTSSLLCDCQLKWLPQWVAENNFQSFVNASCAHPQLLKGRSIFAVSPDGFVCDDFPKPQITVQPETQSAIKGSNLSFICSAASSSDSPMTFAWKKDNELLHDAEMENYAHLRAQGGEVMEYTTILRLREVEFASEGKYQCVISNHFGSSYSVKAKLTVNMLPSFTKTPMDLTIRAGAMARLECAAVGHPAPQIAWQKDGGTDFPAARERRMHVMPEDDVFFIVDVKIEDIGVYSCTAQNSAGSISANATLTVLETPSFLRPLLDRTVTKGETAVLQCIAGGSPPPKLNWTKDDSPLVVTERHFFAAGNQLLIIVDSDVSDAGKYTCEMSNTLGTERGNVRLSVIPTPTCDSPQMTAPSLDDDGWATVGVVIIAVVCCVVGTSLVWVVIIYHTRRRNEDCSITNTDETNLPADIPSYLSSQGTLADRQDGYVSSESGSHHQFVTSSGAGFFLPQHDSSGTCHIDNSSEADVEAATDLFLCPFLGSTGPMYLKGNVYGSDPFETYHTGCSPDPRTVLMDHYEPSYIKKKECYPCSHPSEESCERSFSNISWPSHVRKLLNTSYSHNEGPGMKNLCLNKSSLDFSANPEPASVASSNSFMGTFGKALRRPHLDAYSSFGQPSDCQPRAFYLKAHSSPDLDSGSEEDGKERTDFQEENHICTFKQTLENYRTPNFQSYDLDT
Assay: co-IP; lysates of HEK293T co-transfected with pLVX-FLAG-LRIG3 and pcDNA3.1-His-NETO2 (full length or deletion mutants); precipitation with the FLAG-specific antibody and protein A/G, 4 °C, 12 h; normal mouse IgG or empty vector as control

Substance: His-NETO2-Del2 (deletion of CUB2 domain) (from UniProt Q8BNJ6)
- binding: binds

Results are given in words; binding and its absence hold for the method and conditions named. Binding seen in cells or lysates may run through a third protein. A result given as binding can be weak or reduced; the word gives no strength. Where a sequence is shown, tags or fusion partners need not be part of it.
